The target in this assay is GFP-tagged human WAVE2 wild type (human) (UniProt Q9Y6W5). Nature of the assay: co-IP; 293 cells transfected with combinations of GFP-WAVE2, myc-Nck1, CEACAM3 WT-HA and vSrc; lysates with 3 µg polyclonal rabbit anti-GFP over night, protein A/G sepharose 1 h, 4°C, three washes with Triton buffer; blots with myc-, HA- and GFP antibodies.

The chains behind the UniProt entries cited, without tags or fusion partners. Residues count along the entry.
UniProt Q9Y6W5: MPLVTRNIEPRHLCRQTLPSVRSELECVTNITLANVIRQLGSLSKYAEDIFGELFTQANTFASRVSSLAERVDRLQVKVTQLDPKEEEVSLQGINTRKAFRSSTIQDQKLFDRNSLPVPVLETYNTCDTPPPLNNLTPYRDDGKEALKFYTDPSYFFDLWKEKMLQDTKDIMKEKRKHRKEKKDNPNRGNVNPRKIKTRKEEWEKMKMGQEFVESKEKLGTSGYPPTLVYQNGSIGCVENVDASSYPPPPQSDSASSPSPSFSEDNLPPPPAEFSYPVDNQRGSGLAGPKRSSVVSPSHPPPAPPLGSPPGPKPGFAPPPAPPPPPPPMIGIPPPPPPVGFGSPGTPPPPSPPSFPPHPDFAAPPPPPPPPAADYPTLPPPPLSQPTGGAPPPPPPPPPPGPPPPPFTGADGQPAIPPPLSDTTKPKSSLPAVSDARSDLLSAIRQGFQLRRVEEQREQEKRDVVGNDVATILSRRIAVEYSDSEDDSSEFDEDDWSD
UniProt P40198, residues 35-252: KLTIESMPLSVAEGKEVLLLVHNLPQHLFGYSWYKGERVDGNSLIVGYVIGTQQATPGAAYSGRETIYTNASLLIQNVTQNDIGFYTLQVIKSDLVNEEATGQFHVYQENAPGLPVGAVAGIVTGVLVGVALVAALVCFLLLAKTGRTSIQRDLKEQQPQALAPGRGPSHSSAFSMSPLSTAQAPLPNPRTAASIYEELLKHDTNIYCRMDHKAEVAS

No constants are given. Whether binding was seen depends on the method and setting. Binding seen in cells or lysates may run through a third protein.

As to “HA-tagged CEACAM3 wild type, expressed without vSrc (not tyrosine phosphorylated) (from UniProt P40198 35-252) (receptor)”, the binding entry is “no binding”.

These data come from paper PMC3308951.
